Some of the results follow.
tested on: T1, CTL2-GFP (C. trachomatis L2/434/Bu, GFP-expressing); set-up: species or system HeLa; Intracellular C. trachomatis growth in HeLa cells, bulk GFP fluorescence relative to DMSO; settings: bulk GFP, single well; 28.5 h, 10 µM; inhibitor
T1 construct: L2/434/Bu, GFP-expressing

Structure (SMILES)	% of control remaining [%]
Cc1ccc2[nH]c(C3CCCCN3C(=O)c3ccncc3)nc2c1 (stereo not drawn) [CBK284000]	102.31
COc1ncc(-c2cncc(NCCO)n2)c(OC)n1 [CBK037939]	181.517
O=C(NCCCn1ccnc1)N1CCN(Cc2ccc(Cl)cc2)CC1 [CBK305894]	37.7574
CCn1cc(C2CN(S(=O)(=O)c3cc(C)c(OC)c(C)c3)CCO2)cn1 (stereo not drawn) [CBK304224]	66.4104
O=C(C1CC1)N1CCC(n2nc(-c3cccs3)ccc2=O)CC1 [CBK284213]	114.687
CN(C)CCN(Cc1ccncc1)Cc1cc(F)ccc1F [CBK283095]	121.142
c1ccc2c(c1)OCC(COc1nccc(N3CCCN(Cc4ccc5c(c4)OCO5)CC3)n1)O2 (stereo not drawn) [CBK083235T]	115.259
O=C(Nc1ccc(F)cc1)c1ccc(=O)n(CC(=O)N2CCC3(CCCCC3)C2)c1 [CBK286006]	139.006
O=C(Cn1cnc2ccccc2c1=O)Oc1cccc(NC2=NS(=O)(=O)c3ccccc32)c1 [CBK264975]	126.252
Cc1cc2nccc(C3CCCN(C(=O)c4ccccc4F)C3)n2n1 (stereo not drawn) [CBK284184]	85.7695
Cc1cc2c(cc1S(=O)(=O)NCc1ccccc1)NC(=O)CO2 [CBK270159]	132.102
Cn1c(C(=O)NCCc2ccc(S(=O)(=O)NC(=O)NC3CCCCC3)cc2)cc2ccccc21 [CBK011876]	71.8637
COc1ncc(-c2ccc(NCC(C)C)nc2)c(OC)n1 [CBK036934]	135.052
COc1ccc2[nH]c(/C(C#N)=C\c3ccc(-c4cc(C(=O)O)ccc4Cl)o3)nc2c1 [CBK268370]	176.066
c1ccc(Cn2cc(-c3nccnc3OCc3ccccn3)cn2)cc1 [CBK107088]	94.8233
O=C(Nc1ccccc1C(=O)O)c1cccc(NC(=O)c2ccco2)c1 [CBK299774]	165.32
O=S(=O)(NCc1ccccn1)c1ccc(Cl)c(Cl)c1Cl [CBK263978]	95.8963
C=CCOc1ccc(C(=O)C2=C(O)C(=O)N(Cc3cccnc3)C2c2cccnc2)cc1 (stereo not drawn) [CBK265167]	114.573
Cc1ccc(-c2ccc(/C=N\NC(=O)C3C(=O)NCC3c3ccccc3)o2)cc1Cl (stereo not drawn) [CBK262808]	76.7778
Cc1[nH]c2ccccc2c1C(=O)CSc1nnc(N)s1 [CBK266328]	154.997
OCCNc1nccnc1-c1ccc2c(c1)OCO2 [CBK088984]	187.132
Cn1cc(NC(=O)CCn2c(C(F)(F)F)cc3cccnc32)cn1 [CBK284866]	118.343
CC(C)Cn1cnc(S(=O)(=O)N2CCC(Cc3ccccc3)CC2)c1 [CBK306273]	164.092
CC1CCc2c(sc(Nc3nc4c(F)cccc4s3)c2C(N)=O)C1 (stereo not drawn) [CBK287477]	162.584
COc1ccc(C(C)C)cc1-c1cncc(NCC(C)(C)CO)n1 [CBK065206]	141.821
Cc1cccc(Cl)c1S(=O)(=O)c1ccc2ccnc(N3CCNCC3)c2c1 [CBK036394C]	101.562

An excerpt from the list above, as a working copy:
Structure (SMILES)	% of control remaining [%]
Cc1ccc2[nH]c(C3CCCCN3C(=O)c3ccncc3)nc2c1 (stereo not drawn) [CBK284000]	102.31
COc1ncc(-c2cncc(NCCO)n2)c(OC)n1 [CBK037939]	181.517

Remaining list, next part:

Structure (SMILES)	% of control remaining [%]
CS(=O)(=O)c1ccc(CN2CC[C@H](c3nc4ncccc4[nH]3)C2)cc1 [CBK289385]	149.39
NC(=O)c1ccc(-c2ccc(/C=C3/C(=O)NN(c4ccc(F)cc4)C3=O)o2)cc1 [CBK098345]	116.273
COC(=O)[C@H]1CN(C(=O)c2cscn2)C[C@@H]1c1ccc(F)cc1 [CBK283785]	133.704
CC(C)(C)OC(=O)N1CCN(Cc2ccn(Cc3ccc(S(C)(=O)=O)cc3)c2)CC1 [CBK144936]	123.043
Cc1noc(C)c1CN1CCC(Oc2ccccc2)CC1 [CBK305811]	128.287
CC1CCN(C(=O)COC(=O)c2cnc(-c3ccncc3)s2)CC1 [CBK306255]	146.97
CCN(Cc1ccncc1)S(=O)(=O)c1ccc(Cl)c(Cl)c1 [CBK043818]	105.451
O=C(COc1cccnc1)N1CCc2ccccc21 [CBK200268]	96.8639
CS(=O)(=O)c1ccc(C(=O)Nc2nc(-c3ccccc3)cs2)cc1 [CBK287716]	87.502
CCOc1ccccc1N1CCN(C(=O)c2cc(-c3ccccc3C)nc3ccccc23)CC1 [CBK091950]	119.587
Cc1ccsc1CN1CCOCC1 [CBK026429]	126.015
CCN(Cc1cnn(C)c1)[C@H]1CCO[C@@H](c2ccccc2-c2ccc(OC)cc2)C1 [CBK285854]	125.35
CCOc1cccc(-c2ccc(Nc3ccc(Oc4ccccc4)cc3)nc2)c1 [CBK037679]	87.1781
CC1CC(C)CN(CCCNC(=O)c2cc(C(C)C)nn2C)C1 (stereo not drawn) [CBK282665]	102.012
CSc1nnnn1-c1cccc(NC(=O)N2CCCN(C)CC2)c1 [CBK304180]	167.48
CC1(C)CCCN1C1=NC(=O)C(c2ccccc2)O1 (stereo not drawn) [CBK023070]	86.2955
O=C(NCCc1c[nH]c2ccc(Cl)cc12)c1c(F)ccc(Cl)c1F [CBK159756]	12.4242
COc1ccc(NC(=S)NCCN2CCC(C)CC2)cc1Cl [CBK267268]	98.5694
CCOc1cc(S(=O)(=O)NCc2ccccn2)ccc1Cl [CBK266817]	106.995
COc1cc(CNc2ccc(N3CCOCC3)c(Cl)c2)ccc1OCc1ccccc1F [CBK074392]	85.162
Sc1nnc(C2CCCC2)n1CC1CCCO1 (stereo not drawn) [CBK288413]	118.092
O=C(CCc1ccc(Cl)cc1)NCCn1cncn1 [CBK283184]	93.4259
Cc1nc2c(c(=O)[nH]1)CCN(C(=O)c1oc3ccccc3c1C)C2 [CBK283752]	85.385
O=c1cc2oc3cc(O)c(O)cc3c(-c3ccc(OCc4cccc([N+](=O)[O-])c4)cc3)c-2cc1O [CBK265408]	131.649
COCCn1c(SC(C)C(=O)N2CCOCC2)nc2cc(Cl)ccc21 (stereo not drawn) [CBK305580]	175.619
CN(C)c1cccc2c(S(=O)(=O)n3c(=O)n(Cc4ccc(S(C)(=O)=O)cc4)c4ccccc43)cccc12 [CBK106535]	109.795

A few values from the list.
Value of `CCN(Cc1ccncc1)S(=O)(=O)c1ccc(Cl)c(Cl)c1` [CBK043818] under % of control remaining [%]: 105.451
Value of `COCCn1c(SC(C)C(=O)N2CCOCC2)nc2cc(Cl)ccc21` (stereo not drawn) [CBK305580] under % of control remaining [%]: 175.619

(continued)

Structure (SMILES)	% of control remaining [%]
CC1(C)CC(=O)C(C(=S)Nc2ccccc2)=C(NCc2ccccc2)C1 [CBK264498]	100
COc1ccccc1N1CCN(CC(CC(=O)Nc2ccccc2)C(=O)O)CC1 (stereo not drawn) [CBK286766]	149.291
CCN1CCC(CNS(=O)(=O)c2ccc(N3CCCC3=O)cc2)CC1 [CBK305663]	90.92
O=C(CN1CCCC1)Nc1sc2c(c1C(=O)Nc1ccccc1)CCCC2 [CBK268800]	92.8186
COc1ccc(CC(=O)NCC(c2cccs2)N2CCOCC2)cc1F (stereo not drawn) [CBK305618]	152.17
CCOC(=O)CN(Cc1ccccc1)S(=O)(=O)c1ccc(C(C)C)cc1 [CBK043404]	118.222
CN(C)c1ccc(/C=C(\C#N)c2nn(-c3ccccc3)c(N)c2C#N)cc1[N+](=O)[O-] [CBK262532]	100
O=C1NC(=O)C2(CCN(C(=O)c3csc4c3CCCC4)CC2)N1 [CBK305601]	116.89
Cc1cccc(C)c1NC(=O)C(C)Sc1nc2ccccc2c(=O)n1CC1CCCO1 (stereo not drawn) [CBK068151]	117.28
O=C(NC(c1ccc(Cl)cc1)c1ccsc1)C1CCN(CCOc2ccccc2)CC1 (stereo not drawn) [CBK147951]	110.005
CS(=O)(=O)Nc1ccc(-c2ccc3c(c2)CCO3)c2ccccc12 [CBK083753]	83.6025
Cn1nc2n(c1=O)CC(C(=O)NCCN1CCCc3ccccc31)CC2 (stereo not drawn) [CBK307206]	138
Cc1cc2c(o1)CCc1sc(N(C)C(=O)C3CCCO3)nc1-2 (stereo not drawn) [CBK281932]	119.926
CCn1c(C2CC(=O)N(c3ccc(C)cc3C)C2)nc2ccccc21 (stereo not drawn) [CBK287505]	150.911
COc1ccc(S(=O)(=O)N(C)CC(=O)O)c2ccccc12 [CBK268459]	79.9282
CN1CCN(CCCNC(=O)N2CCN(c3cc(C(F)(F)F)ccn3)CC2)CC1 [CBK156431]	114.501
Cn1c(=O)n(C)c2cc(CNC3(c4ccccc4)CC3)ccc21 [CBK282746]	134.754
Cc1cc(OC(C)C(=O)Nn2cnnc2)ccc1Cl (stereo not drawn) [CBK269690]	135.398
CN(C)CCN(C)c1nc(-c2ccccc2F)cn2ccnc12 [CBK037406]	105.934
O=C(O)c1ccc(NCc2ccccc2OCc2ccc(F)cc2)cc1 [CBK266487]	140.34
Cc1c(NC(=O)CSc2nnc(-c3cccc([N+](=O)[O-])c3)n2C)c(=O)n(-c2ccccc2)n1C [CBK266757]	143.287
CN(C)C(=O)c1ccc(Cn2ccnc(N3CCC(Sc4ccccc4)CC3)c2=O)cc1 [CBK153651]	100.589
O=C(O)CCCN1C(=O)c2ccccc2C1=O [CBK056635]	102.19
CCSc1ccc(-c2cc(N(C)c3cccc(C)c3)n3nccc3n2)cc1 [CBK037115]	158.592
Cc1nn(-c2ccccc2)c2sc(C(=O)N3CCN(C(=O)c4ccccc4)CC3)cc12 [CBK297554]	134.5
CNS(=O)(=O)c1ccc(NC(=O)Nc2ccc([N+](=O)[O-])cc2OC)cc1 [CBK266939]	108.971

— publication PMC12040169 (PLOS Biology, 2025)
